This is an account of results in publication PMC7819943, “Rice protein-binding microarrays: a tool to detect cis-acting elements near promoter regions in rice”.

The other results are listed elsewhere or left out.

In this experiment the target is T1, OsSMF1 (Oryza sativa, UniProt Q6ZLB0 1-436).
T1 sequence: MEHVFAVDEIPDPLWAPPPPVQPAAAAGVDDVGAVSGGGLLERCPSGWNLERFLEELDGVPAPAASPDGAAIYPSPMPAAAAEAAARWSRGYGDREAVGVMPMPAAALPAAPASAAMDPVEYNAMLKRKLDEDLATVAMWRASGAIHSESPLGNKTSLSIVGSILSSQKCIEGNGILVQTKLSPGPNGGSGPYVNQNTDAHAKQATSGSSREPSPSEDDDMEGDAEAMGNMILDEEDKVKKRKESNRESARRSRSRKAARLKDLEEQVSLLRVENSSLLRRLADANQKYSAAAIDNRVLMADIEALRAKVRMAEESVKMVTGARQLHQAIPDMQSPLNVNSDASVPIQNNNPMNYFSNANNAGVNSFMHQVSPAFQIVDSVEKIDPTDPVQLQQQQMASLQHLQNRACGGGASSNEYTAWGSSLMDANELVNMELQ
In words: protein-binding microarray (RPBM); PBS, 2% BSA, 51.3 ng/ul salmon testes DNA, 50 uM zinc acetate, 200 nM TF, 25 C, 1 h; high values mean tight binding. The conditions noted are these: protein: recombinant; tags: N-terminal polyhistidine and DsRed monomer fusion (pET32a); chain copies: 2; label: CyDye5-dUTP incorporated in the synthesized complementary strand; 3' TTTTT single-stranded linker to array surface; dsDNA, one strand shown. The method in brief:
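Using Ni–NTA, transcription factors fused N-terminally to polyhistidine and DsRed were purified after expression in E. coli BL21-CodonPlus. These were incubated at 200 nM with a blocked, double-stranded custom Agilent array for 1 h at 25 °C in a buffer containing 50 µM zinc acetate, and the array was washed. The binding signal is per-feature fluorescence intensity (arbitrary units) on an Axon 4000B scanner.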
In the case of “AACGGCAGTACGGTATAGGAAAGGGAATAATAATAACAATCGGAGTCACCTAGTGCAG”, the binding signal is 20400 fluorescence intensity (a.u.). In the case of “AAGCGGGGATTTTATGTGGGCAGTGGGTTTTCTTCTTAAACGGAGTCACCTAGTGCAG”, the binding signal was 3810 fluorescence intensity (a.u.). Consider “CCGATTTTCATGACGAAACTCTACTTTTGCAAAATGCTTCCGGAGTCACCTAGTGCAG”, for which the binding signal was 3140 fluorescence intensity (a.u.).

Take “ACATAACGATATGTCGTGGCCCCATCATCACATTCACAGACGGAGTCACCTAGTGCAG”: the binding signal was 3800 fluorescence intensity (a.u.).

On to “ACCGGCCAGGCAAACCCAGTCAGCCAAACCCTCACCCGTACGGAGTCACCTAGTGCAG”, for which the binding signal is 3420 fluorescence intensity (a.u.). On to “GTTTTCCTTGCTGACCTCGATTCGGAATATGGATCCGTGTCGGAGTCACCTAGTGCAG”, for which the binding signal is 3350 fluorescence intensity (a.u.). With “GGTTGTTCGCTGATGTGTAGCTTTCAGAGCGATTAGGCTTCGGAGTCACCTAGTGCAG”, the binding signal was 5900 fluorescence intensity (a.u.). On to “GCGGCGGCGCGAGCAAGTGACGCGGCGGCGCGATAAGGGCCGGAGTCACCTAGTGCAG”, for which the binding signal was 4650 fluorescence intensity (a.u.). “GGTGAATGGCGGTGGTTTCGGCTTGCACGGTGGGAATGGTCGGAGTCACCTAGTGCAG”: the binding signal is 3490 fluorescence intensity (a.u.). As to “CTACTCTTATCCAAGGCAGACGGGCACGTGTAACTGCCATCGGAGTCACCTAGTGCAG”, the binding signal is 4590 fluorescence intensity (a.u.). For “GTATAAGAGAAGCCGGATAATTCACTGATACTCCAATGGACGGAGTCACCTAGTGCAG”, the binding signal was 15500 fluorescence intensity (a.u.). Regarding “CCTCTTCCTCTGCTTCGTCTTCTTCCTCTCGCTGCTGCTTCGGAGTCACCTAGTGCAG”, the binding signal was 30500 fluorescence intensity (a.u.). To “GACTGCGGCCACAGATGATCCTGATGTGTAAACTCATGCTCGGAGTCACCTAGTGCAG” belongs 3140 fluorescence intensity (a.u.); to “ACTTGAAATATTGGCTATTATTATTGAACCTAGGAACAAGCGGAGTCACCTAGTGCAG”, 18400 fluorescence intensity (a.u.); to “GAGATTCGCCACCCGCCGGAGAAATGCCGCCACGGAGGCGCGGAGTCACCTAGTGCAG”, 4170 fluorescence intensity (a.u.). To “GCGCCGCCAGCCGCTACAGGTCAGCGGCAACAGCAGGTTCCGGAGTCACCTAGTGCAG” belongs 29200 fluorescence intensity (a.u.); to “TGTATGTAATATTAACATGGAGATAAGATCCAAGATGCGACGGAGTCACCTAGTGCAG”, 3570 fluorescence intensity (a.u.). Turning to “TGCCATCCAATTCGTGCTACTTTCAGAATACACCATCGAACGGAGTCACCTAGTGCAG”, the binding signal is 3320 fluorescence intensity (a.u.). In the case of “AGTTCTCATCTCCAATTTTCTCGGTACGTGTATTTGAGGGCGGAGTCACCTAGTGCAG”, the binding signal was 3220 fluorescence intensity (a.u.). “CACGGCATCGGCATCGGCAGCCACGCCTCGCGTGGCACGGCGGAGTCACCTAGTGCAG”: the binding signal was 4720 fluorescence intensity (a.u.).

On to “TATTCCCAACGTCATGACAGGGACACGTCATAACAAATTCCGGAGTCACCTAGTGCAG”, for which the binding signal is 16000 fluorescence intensity (a.u.). As for “CAAATTATTTTGGTTGCATTGTTTATTCTAAAGAGCTGATCGGAGTCACCTAGTGCAG”, the binding signal was 14900 fluorescence intensity (a.u.). For “GACAATGATGTCACGGGCGGACGCGGCTGTGACGCACGCACGGAGTCACCTAGTGCAG”, the binding signal was 7830 fluorescence intensity (a.u.).

With “GCTCTATGATTTGACAATGTAGTGCTACAGTAAACATTTGCGGAGTCACCTAGTGCAG”, the binding signal is 3820 fluorescence intensity (a.u.). Regarding “AGCCCACGTCCAGCTCACACACGCACCCACAACCGACCCACGGAGTCACCTAGTGCAG”, the binding signal was 6070 fluorescence intensity (a.u.). Turning to “TCGACCAATCCTATAAAGCGACACATCACCGGATAACCACCGGAGTCACCTAGTGCAG”, the binding signal was 7880 fluorescence intensity (a.u.). Then “TGGCCGTGCCGTTATAGTTACGACGGCAGACGTGCCGTTACGGAGTCACCTAGTGCAG”, with 35600 fluorescence intensity (a.u.); and “GCCGCTTCGATGCTGGCGGCAGGGTGGGGCGGGGATGCCTCGGAGTCACCTAGTGCAG”, with 6170 fluorescence intensity (a.u.). To “ATTTCAGCGAAAGCTACGTCACGTAGGCACCACGACAGTTCGGAGTCACCTAGTGCAG” belongs 6470 fluorescence intensity (a.u.); to “TACTTGTCAAATATTTGGTGGAAATGGTAGGTGTAATGTACGGAGTCACCTAGTGCAG”, 3460 fluorescence intensity (a.u.). To “TCATACTGCCATCATACCATCCTACAATAGACAAATTTAACGGAGTCACCTAGTGCAG” belongs 54300 fluorescence intensity (a.u.). Turning to “CTACTTTCATGCAGGTGTAAAATTCGTGTGACAACTTTGTCGGAGTCACCTAGTGCAG”, the binding signal is 5380 fluorescence intensity (a.u.).

With “AATCGAGAAGTCAAAAGTGACGTAGAGTCCTACTGTATCCCGGAGTCACCTAGTGCAG”, the binding signal is 3940 fluorescence intensity (a.u.). Then “AATTGCTGACAGTACATTAGTGTACTCCATAGGTTCATCTCGGAGTCACCTAGTGCAG”, with 4440 fluorescence intensity (a.u.); and “GTGGTGGTCATCAACTCGTGCATTGCCACCCAGATCTCCACGGAGTCACCTAGTGCAG”, with 4220 fluorescence intensity (a.u.). Take “ACGAGGGATGTCCTCTCCCCTCTGTCATCTAGCGCCCGCGCGGAGTCACCTAGTGCAG”: the binding signal is 3150 fluorescence intensity (a.u.). Turning to “TGACCGCAGACGTGGCATGCCACACAAGCACCAATTTTGCCGGAGTCACCTAGTGCAG”, the binding signal was 8620 fluorescence intensity (a.u.).

For “GACACGTATGATTTGTGTGGTAGTACATAGCACGCACGCACGGAGTCACCTAGTGCAG”, the binding signal is 35800 fluorescence intensity (a.u.). Then “AACTGGAACCCTTAGCCACTGTGAGGTGTACATCTGACAACGGAGTCACCTAGTGCAG”, with 4990 fluorescence intensity (a.u.); and “GCCACCGCTGCATCATCCCGCCTGTCTGCCTGCGCGCGCCCGGAGTCACCTAGTGCAG”, with 3430 fluorescence intensity (a.u.). “GCACTAGCTAGTTAGATCATAAGGACGACAGAATGTTTGCCGGAGTCACCTAGTGCAG”: the binding signal is 38600 fluorescence intensity (a.u.). To “GTGCTCTCAATGCTACATCACGAACACACTGTATGTAGTGCGGAGTCACCTAGTGCAG” belongs 3170 fluorescence intensity (a.u.).
